This is one part of the list. Repeats are few or missing, and single values can be far off.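 Imaging used 1,536-well plates; nuclei positive for cleaved PARP by antibody were divided by total DNA-stained nuclei to yield the apoptosis fraction. Doses for screening kept most cells viable, and cell lines differ markedly in resting and induced cleaved-PARP levels.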
Tests used:
Experiment in all cases: cleaved PARP positive nuclei fraction relative to DMSO control; melanoma cells; higher = more apoptosis
Details in all cases: library dose: low library concentration; 72 h
501Mel = test system: 501Mel
A101D = test system: A101D
A2058 = test system: A2058
A375 = test system: A375
C32 = test system: C32
CBRC008 = test system: CBRC008 (line from a melanoma biopsy)
CBRC013 = test system: CBRC013 (line from a melanoma biopsy)
CBRC014 = test system: CBRC014 (line from a melanoma biopsy)
CBRC016 = test system: CBRC016 (line from a melanoma biopsy)
CBRC017 = test system: CBRC017 (line from a melanoma biopsy)

Row | Structure (SMILES) | cleaved PARP positive nuclei fraction (501Mel) [%] | cleaved PARP positive nuclei fraction (A101D) [%] | cleaved PARP positive nuclei fraction (A2058) [%] | cleaved PARP positive nuclei fraction (A375) [%] | cleaved PARP positive nuclei fraction (C32) [%] | cleaved PARP positive nuclei fraction (CBRC008) [%] | cleaved PARP positive nuclei fraction (CBRC013) [%] | cleaved PARP positive nuclei fraction (CBRC014) [%] | cleaved PARP positive nuclei fraction (CBRC016) [%] | cleaved PARP positive nuclei fraction (CBRC017) [%]
1 | Cn1cc(C2=C(c3cn(C4CCN(Cc5ccccn5)CC4)c4ccccc34)C(=O)NC2=O)c2ccccc21 [Enzastaurin] + OCCn1cc(-c2cnc3nnn(Cc4ccc5ncccc5c4)c3n2)cn1 [PF04217903] (first compound 0.8 µM, partner dose 1 µM) | 186 | 78.1 | 102 | 149 | 99.5 | 239 | 50.9 | 87.8 | 80.6 | 103
2 | N.N.[Cl][Pt][Cl] [cisplatin] + COc1cc(Nc2ncc(F)c(Nc3ccc4c(n3)NC(=O)C(C)(C)O4)n2)cc(OC)c1OC [Tamatinib] (first compound 1.6 µM, partner dose 0.4 µM) | 103 | 77.1 | 147 | 172 | 59.8 | 283 | 87.2 | 123 | 113 | 107
3 | C[As](C)SC[C@H](NC(=O)CC[C@H](N)C(=O)O)C(=O)NCC(=O)O [Darinaparsin] + CN(C)S(=O)(=O)c1ccc2c(c1)/C(=C/c1cc3c([nH]1)CCCC3)C(=O)N2 [SU6656] (first compound 0.4 µM, partner dose 0.4 µM) | 96.7 | 97.5 | 62.6 | 158 | 27.6 | 122 | 157 | 97.6 | 22.2 | 94.6
4 | C[C@]12O[C@H](C[C@]1(O)CO)n1c3ccccc3c3c4c(c5c6ccccc6n2c5c31)CNC4=O [Lestaurtinib] + CN(NC(=O)CC(=O)NN(C)C(=S)c1ccccc1)C(=S)c1ccccc1 [STA4783] (first compound 0.004 µM, partner dose 0.006 µM) | 66.4 | 73.1 | 115 | 64.4 | 120 | 881 | 95.8 | 185 | 140 | 116
5 | Cn1cc(C2=C(c3cn(C4CCN(Cc5ccccn5)CC4)c4ccccc34)C(=O)NC2=O)c2ccccc21 [Enzastaurin] + C=CCn1c(=O)c2cnc(Nc3ccc(N4CCN(C)CC4)cc3)nc2n1-c1cccc(C(C)(C)O)n1 [MK1775] (first compound 0.8 µM, partner dose 0.02 µM) | 135 | 207 | 194 | 357 | 119 | 194 | 76.9 | 176 | 144 | 148
6 | C[C@]12O[C@H](C[C@]1(O)CO)n1c3ccccc3c3c4c(c5c6ccccc6n2c5c31)CNC4=O [Lestaurtinib] + O=C(CCCCCCC(=O)Nc1ccccc1)NO [vorinostat] (first compound 0.004 µM, partner dose 0.08 µM) | 107 | 219 | 78.3 | 87.5 | 71.5 | 123 | 93.2 | 82.4 | 27.2 | 102
7 | Cn1cc(C2=C(c3cn(C4CCN(Cc5ccccn5)CC4)c4ccccc34)C(=O)NC2=O)c2ccccc21 [Enzastaurin] + NC(=O)Nc1cc(-c2cccc(F)c2)sc1C(=O)N[C@H]1CCCNC1 [AZD7762] (first compound 0.8 µM, partner dose 0.02 µM) | 95.1 | 133 | 136 | 356 | 144 | 168 | 94.2 | 105 | 106 | 102
8 | C[As](C)SC[C@H](NC(=O)CC[C@H](N)C(=O)O)C(=O)NCC(=O)O [Darinaparsin] + CC1(C)NC(=O)N(c2ccc([N+](=O)[O-])c(C(F)(F)F)c2)C1=O [nilutamide] (first compound 0.4 µM, partner dose 1 µM) | 82.3 | 78.1 | 41.7 | 155 | 88.2 | 103 | 103 | 90.5 | 88.4 | 174
9 | C[C@]12O[C@H](C[C@]1(O)CO)n1c3ccccc3c3c4c(c5c6ccccc6n2c5c31)CNC4=O [Lestaurtinib] + NC(=O)Nc1cc(-c2cccc(F)c2)sc1C(=O)N[C@H]1CCCNC1 [AZD7762] (first compound 0.004 µM, partner dose 0.02 µM) | 179 | 97.2 | 115 | 466 | 76.8 | 202 | 71.1 | 53.6 | 123 | 105
10 | Cn1cc(C2=C(c3cn(C4CCN(Cc5ccccn5)CC4)c4ccccc34)C(=O)NC2=O)c2ccccc21 [Enzastaurin] + COc1cc2c(Oc3ccc4[nH]c(C)cc4c3F)ncnc2cc1OCCCN1CCCC1 [cediranib] (first compound 0.8 µM, partner dose 0.4 µM) | 90.8 | 77 | 137 | 96.2 | 243 | 125 | 31.6 | 96.2 | 53.7 | 94.9
11 | N.N.[Cl][Pt][Cl] [cisplatin] + Cc1ccc(NC(=O)c2cccc(N(C)C)c2)cc1NC(=O)c1ccc(O)cc1 [ZM336372] (first compound 1.6 µM, partner dose 2 µM) | 37.6 | 94.2 | 202 | 162 | 76.5 | 145 | 86 | 145 | 157 | 116
12 | C[C@]12O[C@H](C[C@]1(O)CO)n1c3ccccc3c3c4c(c5c6ccccc6n2c5c31)CNC4=O [Lestaurtinib] + NCC(=O)Nc1ccc(-n2nc(C(F)(F)F)cc2-c2ccc3c(ccc4ccccc43)c2)cc1 [OSU03012] (first compound 0.004 µM, partner dose 1 µM) | 206 | 74.4 | 85 | 3820 | 56.8 | 95.6 | 85.1 | 190 | 129 | 109
13 | C[As](C)SC[C@H](NC(=O)CC[C@H](N)C(=O)O)C(=O)NCC(=O)O [Darinaparsin] + CN(NC(=O)CC(=O)NN(C)C(=S)c1ccccc1)C(=S)c1ccccc1 [STA4783] (first compound 0.4 µM, partner dose 0.006 µM) | 489 | 58.5 | 70.6 | 6020 | 221 | 2840 | 161 | 474 | 260 | 247
14 | Cn1cc(C2=C(c3cn(C4CCN(Cc5ccccn5)CC4)c4ccccc34)C(=O)NC2=O)c2ccccc21 [Enzastaurin] + Cn1cncc1[C@@](N)(c1ccc(Cl)cc1)c1ccc2c(c1)c(-c1cccc(Cl)c1)cc(=O)n2C [tipifarnib] (first compound 0.8 µM, partner dose 0.01 µM) | 258 | 88.1 | 129 | 83.8 | 81.8 | 86.9 | 56.6 | 126 | 87.4 | 84.5
15 | C[C@]12O[C@H](C[C@]1(O)CO)n1c3ccccc3c3c4c(c5c6ccccc6n2c5c31)CNC4=O [Lestaurtinib] + O=C(Nc1cccc(Cl)c1)Nc1ncc(CCNc2ncnc3ccsc23)s1 [SNS314] (first compound 0.004 µM, partner dose 0.0008 µM) | 99.7 | 55.9 | 45.1 | 132 | 95.8 | 31.2 | 117 | 71.5 | 44.8 | 88.2
16 | C[C@]12O[C@H](C[C@]1(O)CO)n1c3ccccc3c3c4c(c5c6ccccc6n2c5c31)CNC4=O [Lestaurtinib] + COc1cc2c(Oc3ccc4[nH]c(C)cc4c3F)ncnc2cc1OCCCN1CCCC1 [cediranib] (first compound 0.004 µM, partner dose 0.4 µM) | 170 | 73.2 | 65.8 | 59.6 | 85.5 | 32 | 126 | 46.9 | 132 | 144
17 | Cn1cc(C2=C(c3cn(C4CCN(Cc5ccccn5)CC4)c4ccccc34)C(=O)NC2=O)c2ccccc21 [Enzastaurin] + NC(=O)c1ccc(N(C(N)=O)c2c(F)cccc2F)nc1-c1ccc(F)cc1F [VX702] (first compound 0.8 µM, partner dose 0.4 µM) | 69.2 | 47.7 | 69.2 | 183 | 68.5 | 110 |  | 106 | 19.5 | 79.9
18 | Cn1cc(C2=C(c3cn(C4CCN(Cc5ccccn5)CC4)c4ccccc34)C(=O)NC2=O)c2ccccc21 [Enzastaurin] + NCC(=O)Nc1ccc(-n2nc(C(F)(F)F)cc2-c2ccc3c(ccc4ccccc43)c2)cc1 [OSU03012] (first compound 0.8 µM, partner dose 1 µM) | 183 | 46.6 | 133 | 2530 | 153 | 85.4 | 84.8 | 89.6 | 131 | 92.1
19 | C[C@]12O[C@H](C[C@]1(O)CO)n1c3ccccc3c3c4c(c5c6ccccc6n2c5c31)CNC4=O [Lestaurtinib] + CO[C@@H]1[C@H](N(C)C(=O)c2ccccc2)C[C@H]2O[C@]1(C)n1c3ccccc3c3c4c(c5c6ccccc6n2c5c31)C(=O)NC4 [Midostaurin] (first compound 0.004 µM, partner dose 0.08 µM) | 95.3 | 46.4 | 155 | 45.3 | 88.3 | 216 | 103 | 76.4 | 78.6 | 225
20 | Cn1cnc2c(F)c(Nc3ccc(Br)cc3Cl)c(C(=O)NOCCO)cc21 [selumetinib] + N.N.[Cl][Pt][Cl] [cisplatin] (first compound 0.015 µM, partner dose 1.6 µM) | 449 | 126 | 139 | 199 | 44.7 | 185 |  | 94.2 | 159 | 117
21 | Cn1cc(C2=C(c3cn(C4CCN(Cc5ccccn5)CC4)c4ccccc34)C(=O)NC2=O)c2ccccc21 [Enzastaurin] + COc1ccc(C2=N[C@@H](c3ccc(Cl)cc3)[C@@H](c3ccc(Cl)cc3)N2C(=O)N2CCNC(=O)C2)c(OC(C)C)c1 [Nutlin-3] (first compound 0.8 µM, partner dose 0.1 µM) | 57.7 | 96.9 | 105 | 52.2 | 76.5 | 136 |  | 105 | 155 | 125

Retrieved one by one from the entries so far:
Row | Structure (SMILES) | cleaved PARP positive nuclei fraction (501Mel) [%] | cleaved PARP positive nuclei fraction (A101D) [%] | cleaved PARP positive nuclei fraction (A2058) [%] | cleaved PARP positive nuclei fraction (A375) [%] | cleaved PARP positive nuclei fraction (C32) [%] | cleaved PARP positive nuclei fraction (CBRC008) [%] | cleaved PARP positive nuclei fraction (CBRC013) [%] | cleaved PARP positive nuclei fraction (CBRC014) [%] | cleaved PARP positive nuclei fraction (CBRC016) [%] | cleaved PARP positive nuclei fraction (CBRC017) [%]
3 | C[As](C)SC[C@H](NC(=O)CC[C@H](N)C(=O)O)C(=O)NCC(=O)O [Darinaparsin] + CN(C)S(=O)(=O)c1ccc2c(c1)/C(=C/c1cc3c([nH]1)CCCC3)C(=O)N2 [SU6656] (first compound 0.4 µM, partner dose 0.4 µM) | 96.7 | 97.5 | 62.6 | 158 | 27.6 | 122 | 157 | 97.6 | 22.2 | 94.6
10 | Cn1cc(C2=C(c3cn(C4CCN(Cc5ccccn5)CC4)c4ccccc34)C(=O)NC2=O)c2ccccc21 [Enzastaurin] + COc1cc2c(Oc3ccc4[nH]c(C)cc4c3F)ncnc2cc1OCCCN1CCCC1 [cediranib] (first compound 0.8 µM, partner dose 0.4 µM) | 90.8 | 77 | 137 | 96.2 | 243 | 125 | 31.6 | 96.2 | 53.7 | 94.9
